Data: patent publication US9133437B2, “Cell proliferation-promoting peptide and use thereof” (TOAGOSEI CO. LTD., priority 2009, dated 2015)
Some results were stated once for a whole list of compounds, not compound by compound.

System: Rat bone marrow stem cells (mesenchymal stem cells)
Test: Cell proliferation-promoting activity, WST-8 colorimetry (OD450)
Type: cell-based
Settings: from optical densities of Table 2
Method: The cell proliferation-promoting peptides (Samples 1 to 8) obtained in Example 1 and the peptides composed of only a (A) part sequence (Samples 9 to 11) which had been prepared for comparison were evaluated, respectively, on the cell proliferation-promoting activity. Sample 12 was an experimental control where a commercial bFGF was used as the cell proliferation promoter. Sample 13 was an experimental control where no peptide was added (bFGF was not added, either). The evaluation assay is described in detail below. Each synthesized peptide sample was dissolved in PBS (phosphate buffered saline) to prepare a stock solution having a peptide concentration of 1 mM.
Rat bone marrow stem cells (mesenchymal stem cells) were used as the test cells. In particular, the test stem cells were subcultured in Dulbecco MEM (DMEM: a Gibco product) containing 10% fetal bovine serum (FBS: a Gibco product), 2 mM of L-glutamine, 50 unit/mL of penicillin, and 50 μg/mL of streptomycin. […]
During the course of this incubation assay, water-soluble tetrazolium salt (WST-8) was added to some wells as a staining reagent at the start of the incubation (day 0), when two days had passed from the start (day 2) and when four days had passed from the start (day 4). […] The level of cell proliferation was evaluated by colorimetry as optical density measured at 450 nm (OD450) based on reduction of the tetrazolium salt.

Sequence: YGRKKRRQRRRTLKERCLQVVRSLVK [Sample 7]
- cell proliferation-promoting ability (in words, compared with bFGF culture, Sample 12): particularly significant cell proliferation-promoting activities
